Test results taken from patent US4198431A, “Alkyl N-(3-trifluoromethylphenyl)-anthranilate” (Hokuriku Pharmaceutical Co., Ltd., priority 1978, dated 1980).
Some of these results come from one statement about several compounds together.

Each molecule was assayed on ddY type male mice (assay: Acute toxicity (LD50) after oral administration). Settings: tests of the same nature and comparable.
Format: in vivo
Description: Using ddY type male mice, acute toxicity (LD50) was examined after oral administration of the methyl, ethyl and butyl esters, respectively.
In a similar manner, LD50 was examined with regard to the C5 -C8 higher alkyl esters.

SMILES | toxicity compared in the same manner as the n-butyl compound
CC(C)COC(=O)c1ccccc1Nc1cccc(C(F)(F)F)c1 [Example 4] | reduced toxicity
CCC(C)OC(=O)c1ccccc1Nc1cccc(C(F)(F)F)c1 (stereo not drawn) [Example 5] | reduced toxicity
CC(C)(C)OC(=O)c1ccccc1Nc1cccc(C(F)(F)F)c1 [Example 6] | reduced toxicity
CCCCCOC(=O)c1ccccc1Nc1cccc(C(F)(F)F)c1 [Example 7] | reduced toxicity
CC(C)CCOC(=O)c1ccccc1Nc1cccc(C(F)(F)F)c1 [Example 8] | reduced toxicity
CCC(C)(C)OC(=O)c1ccccc1Nc1cccc(C(F)(F)F)c1 [Example 9] | reduced toxicity
CCCCCCOC(=O)c1ccccc1Nc1cccc(C(F)(F)F)c1 [Example 10] | reduced toxicity
CCCCCCCOC(=O)c1ccccc1Nc1cccc(C(F)(F)F)c1 [Example 11] | reduced toxicity
CCCCCCCCOC(=O)c1ccccc1Nc1cccc(C(F)(F)F)c1 [Example 12] | reduced toxicity
